Data taken from patent US6346601 (dated 2002).

Test: general procedure: hybrid (solid and solution phase) peptide synthesis; 2-chloro trityl chloride resin

Substance	oxidative folding yield (oxidative folding step)	step yield (purification step, yield of the purification step) [%]	final purity (method not given) (whole synthesis) [%]	isolated yield (whole synthesis, overall synthesis and purification yield)
cycle ^(2-7) Boc-D-Phe-Cis-Phe-D-Trp-Lys(Boc)-Thr(tBu)-Cis-OH	between 85 and 95%			
octreotide		60	99	greater than 40%
